Experimental data from publication doi:10.64898/2025.12.12.693940.

Sequences of proteins named here, by UniProt entry; tags and fusion partners are left off. Residues count along the entry.
UniProt O95831, residues 102-613: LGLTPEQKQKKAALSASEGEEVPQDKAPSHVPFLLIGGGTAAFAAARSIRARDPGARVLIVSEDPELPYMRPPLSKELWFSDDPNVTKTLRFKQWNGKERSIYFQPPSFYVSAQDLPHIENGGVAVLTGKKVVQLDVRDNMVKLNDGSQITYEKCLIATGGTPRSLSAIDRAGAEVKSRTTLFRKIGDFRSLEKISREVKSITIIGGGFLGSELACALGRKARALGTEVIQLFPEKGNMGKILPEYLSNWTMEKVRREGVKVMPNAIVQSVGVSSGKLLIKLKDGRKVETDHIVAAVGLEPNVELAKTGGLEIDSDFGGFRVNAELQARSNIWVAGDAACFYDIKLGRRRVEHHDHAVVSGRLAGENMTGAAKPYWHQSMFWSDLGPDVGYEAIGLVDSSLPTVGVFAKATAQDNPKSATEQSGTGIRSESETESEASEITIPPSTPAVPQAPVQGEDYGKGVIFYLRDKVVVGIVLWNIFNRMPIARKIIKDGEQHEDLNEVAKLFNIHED

T1: CCDC127-HA (human) (UniProt Q96BQ5)
T1 sequence: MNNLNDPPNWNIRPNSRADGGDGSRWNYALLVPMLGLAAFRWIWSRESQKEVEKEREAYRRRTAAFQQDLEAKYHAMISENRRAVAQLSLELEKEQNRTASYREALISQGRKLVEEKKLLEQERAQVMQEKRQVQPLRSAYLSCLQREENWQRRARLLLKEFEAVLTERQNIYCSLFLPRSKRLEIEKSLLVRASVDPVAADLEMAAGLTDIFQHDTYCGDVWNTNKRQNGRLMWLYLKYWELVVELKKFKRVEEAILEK

T2: MIA40-Strep (human) (UniProt Q8N4Q1)
T2 sequence: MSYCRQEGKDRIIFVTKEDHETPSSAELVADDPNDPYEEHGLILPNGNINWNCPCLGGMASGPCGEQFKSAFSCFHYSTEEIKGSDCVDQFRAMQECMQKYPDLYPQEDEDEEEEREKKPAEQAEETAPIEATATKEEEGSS

B1: CCDC127 (endogenous) (protein, UniProt Q96BQ5 1-260)
chain: MNNLNDPPNWNIRPNSRADGGDGSRWNYALLVPMLGLAAFRWIWSRESQKEVEKEREAYRRRTAAFQQDLEAKYHAMISENRRAVAQLSLELEKEQNRTASYREALISQGRKLVEEKKLLEQERAQVMQEKRQVQPLRSAYLSCLQREENWQRRARLLLKEFEAVLTERQNIYCSLFLPRSKRLEIEKSLLVRASVDPVAADLEMAAGLTDIFQHDTYCGDVWNTNKRQNGRLMWLYLKYWELVVELKKFKRVEEAILEK
B2: SAM50 (protein, UniProt Q9Y512 1-469)
chain: MGTVHARSLEPLPSSGPDFGGLGEEAEFVEVEPEAKQEILENKDVVVQHVHFDGLGRTKDDIIICEIGDVFKAKNLIEVMRKSHEAREKLLRLGIFRQVDVLIDTCQGDDALPNGLDVTFEVTELRRLTGSYNTMVGNNEGSMVLGLKLPNLLGRAEKVTFQFSYGTKETSYGLSFFKPRPGNFERNFSVNLYKVTGQFPWSSLRETDRGMSAEYSFPIWKTSHTVKWEGVWRELGCLSRTASFAVRKESGHSLKSSLSHAMVIDSRNSSILPRRGALLKVNQELAGYTGGDVSFIKEDFELQLNKQLIFDSVFSASFWGGMLVPIGDKPSSIADRFYLGGPTSIRGFSMHSIGPQSEGDYLGGEAYWAGGLHLYTPLPFRPGQGGFGELFRTHFFLNAGNLCNLNYGEGPKAHIRKLAECIRWSYGAGIVLRLGNIARLELNYCVPMGVQTGDRICDGVQFGAGIRFL
B3: MIA40 (endogenous) (protein, UniProt Q8N4Q1 1-142)
chain: MSYCRQEGKDRIIFVTKEDHETPSSAELVADDPNDPYEEHGLILPNGNINWNCPCLGGMASGPCGEQFKSAFSCFHYSTEEIKGSDCVDQFRAMQECMQKYPDLYPQEDEDEEEEREKKPAEQAEETAPIEATATKEEEGSS

Experiments:
Assay in all cases: affinity purification with mass spectrometry
[1] = biological target: T1, CCDC127-HA (human)
[2] = biological target: T2, MIA40-Strep (human)
[3] = biological target: T1, CCDC127-HA (human); remark: listed apart in the source

Row | Molecule | binding [3] | other results
1 | AIFM1 (from UniProt O95831 102-613) |  | binding [1]: binds
2 | B1 |  | binding [2]: binds
3 | B2 | binds | 
4 | B3 | binds | 

Like-named read-outs stand apart in the source and are kept apart here. Results are given in words; binding and its absence hold for the method and conditions named. In cells and extracts the contact can be indirect. A yes stands for co-enrichment or nearness to the bait. Other partners may have been found. For some of these results: Where a sequence is shown, tags or fusion partners need not be part of it.
